{"source": "patent US5378813A", "about": "“Meso-2,5-dimercapto-N,N,N'N'-tetramethyladipamide” (President and Fellows of Harvard College, priority 1992, dated 1995)", "key": {"Odor": {"test": "Odor", "settings": "for odor of the oxidized form: oxidized form containing a disulfide group (in parentheses); for odor: reduced (dithiol) form"}, "[1]": {"test": "Reduction potential and equilibrium constant for reduction of ME^ox by the dithiol", "type": "physicochemical", "settings": "mercaptoethanol disulfide or glutathione disulfide (6 mM, 1.5-fold excess)", "description": "We used the equilibrium constant between meso-DTA and DTT to determine the values of ε° and K(ME) of meso-DTA.\nAfter 4 h, a ^1 H NMR spectrum was obtained."}}, "note": "“Also recorded” adds a separate entry of the source."}
{"compound": "O[C@H](CS)[C@H](O)CS", "note": "(racemic) [DTT, dithiothreitol, reference compound]", "values": [{"measurement": "odor of the oxidized form", "setting": "Odor", "result": "none"}, {"measurement": "odor", "setting": "Odor", "result": "weak"}]}
{"compound": "CN(C(=O)CS)N(C)C(=O)CS", "note": "[DMH, N,N'-dimethyl-N,N'-bis(mercaptoacetyl) hydrazine, reference compound]", "values": [{"measurement": "odor of the oxidized form", "setting": "Odor", "result": "none"}, {"measurement": "odor", "setting": "Odor", "result": "weak"}]}
{"compound": "CN(C)C(=O)[C@H](S)CC[C@H](S)C(=O)N(C)C", "note": "[meso-DTA, meso-2,5-Dimercapto-N,N,N',N'-tetramethyladipamide]", "values": [{"measurement": "extent of reduction of noncyclic disulfides by 1H NMR", "setting": "[1]", "result": "oxidized completely; also recorded: completely reduces"}, {"measurement": "odor of the oxidized form", "setting": "Odor", "result": "none"}, {"measurement": "odor", "setting": "Odor", "result": "weak"}]}
